The campaign covered roughly 220,000 compounds. About 2,400 (1.1%) were called active. The shares of active, inactive and inconclusive entries below differ from those in the screen. Calls come from the whole dose curve; as a rule, active = well fitted inhibition curve with a large enough effect; inconclusive = small, poorly fitted or top-dose-only effect, or effect the other way; inactive = no such curve, though single readings can be large or run the other way. A potency beside an inconclusive call is a rough fit, not a confirmed value.
Experiment: qHTS Multiplex Assay to Identify Dual Action Probes in a Cell Model of Huntington: Aggregate Formation (GFP); note: nearly all actives have a fitted effect of over 60% in size
Settings: PC12 HttQ103-GFP aggregates, Acumen cytometry, 40 h; activity change, negative = inhibition: at 46.1 µM (top of the series) unless noted
Outline: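 Ecdysone-promoter PC12 model expressing HTT exon 1 Q103 fused to GFP, induced by tebufenozide at 100 nM final. Compounds titrated; aggregates sized 1–25 µm scored on a 488 nm laser cytometer.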
% is set by controls: 0 for no effect and ±100 for the full control effect; potency is the fitted concentration of half-maximal effect.

SMILES | Potency | activity change, negative = inhibition
COc1ccc(C(=O)Nc2oc(-c3ccccc3)c(-c3ccccc3)c2C#N)cc1OC | inconclusive: 2.51 µM [activator, single point] | –
CN=C1C=CC(=C(c2ccc(N(C)C)cc2)c2ccc(N(C)C)cc2)C=C1 | active: 8.91 µM | –
CC(C)CN(CC(C)C)C(=O)Cc1coc2ccc3ccccc3c12 | inconclusive: 15.8 µM [inhibitor, single point] | –
O=C1CCCC/C1=C/Nc1ccc(S(=O)(=O)Nc2ncccn2)cc1 | – | inactive: 9.41%
COc1ccc(-c2nnc(SC(=O)N3c4ccccc4Sc4ccccc43)o2)cc1 | inconclusive: 17.8 µM [inhibitor, single point] | –
COc1cc(/C=N/NC(=O)Nc2cccc3nsnc23)cc(OC)c1OC | inconclusive: 3.98 µM [inhibitor, single point] | –
Cc1cc(NC2CCCCC2)nc(NCc2ccccc2)n1 | inconclusive: 10 µM [inhibitor, single point] | –
CC(=O)Nc1ccccc1NC(=O)CC(C)(C)C | inconclusive: 1.26 µM [inhibitor, single point] | –
CCOc1ccc(N(CC(=O)Nc2cccc(F)c2)S(=O)(=O)c2c(C)noc2C)cc1 | inconclusive: 25.1 µM [inhibitor, single point] | –
CCN(CC)c1nc2ccccc2c(N)c1-c1ccccc1 | active: 11.2 µM | –
CC1CCN(S(=O)(=O)c2ccc3nc(-c4ccccn4)cc(C(=O)NCCN(C)Cc4ccccc4)c3c2)CC1 | inconclusive: 1.12 µM [activator, full curve, poor fit] | –
Cc1cc(NC(c2cccnc2)c2ccc3cccnc3c2O)no1 (stereo unspecified) | inconclusive: 5.62 µM [inhibitor, single point] | –
CN(c1ccccc1)S(=O)(=O)c1cccc(NC(=O)CC(C)(C)C)c1 | inconclusive: 22.4 µM [inhibitor, single point] | –
CCCSc1cc(NCCOC(=O)CCC)c([N+](=O)[O-])c2nonc12 | – | inactive: 3.66%
CCCCC(=O)Nc1ccc(C(=O)NNC(=O)c2ccc(C)c(Br)c2)cc1 | inconclusive: 35.5 µM [activator, single point] | –
CCN(CC)CCn1cnc2c([nH]c3cccc(OC)c32)c1=O | – | inactive: -4.7%
O=C(CN1C(=O)CC(c2ccco2)Sc2ccccc21)NCC1CCCO1 (stereo unspecified) | – | inactive: 6.45%
COC(=O)c1ccc2c(=O)n(-c3ccc(OC)cc3)c(=S)[nH]c2c1 | – | inactive: 0.186%
CN(C)/C=C/c1onc(-c2c(Cl)cccc2Cl)c1C#N | – | inactive: -1.41%
CCOc1ccc(Nc2nc(Cc3nnc(SCC(=O)c4ccc(C)cc4)o3)cs2)cc1 | inconclusive: 35.5 µM [inhibitor, single point] | –
CCC(C(=O)NC(C)CCc1ccco1)n1nc(C)n2c(cc3occc32)c1=O (stereo unspecified) | – | inactive: -8.59%
CCCOC(=O)C1C2C=CC3(CN(c4cccc(Cl)c4)C(=O)C13)O2 (stereo unspecified) | inconclusive: 5.62 µM [activator, single point] | –
O=C1Cn2c(nc3ccccc32)N1c1ccccc1F | – | inactive: -12%

Molecules shown so far that have two or more sulfur atoms:
SMILES | Potency | activity change, negative = inhibition
COc1ccc(-c2nnc(SC(=O)N3c4ccccc4Sc4ccccc43)o2)cc1 | inconclusive: 17.8 µM [inhibitor, single point] | –
CCOc1ccc(Nc2nc(Cc3nnc(SCC(=O)c4ccc(C)cc4)o3)cs2)cc1 | inconclusive: 35.5 µM [inhibitor, single point] | –

Next part:

SMILES | Potency | activity change, negative = inhibition
Cc1ccc(C(=O)CCC(=O)N2CCN(C(=O)c3ccco3)CC2)cc1 | – | inactive: 0.963%
CCN1/C(=C/c2ccc3ccc(C)cc3[n+]2CC)Sc2ccccc21 | active: 7.94 µM | –
Cc1cc(C)c2c(=O)[nH]c(=O)n(Cc3ccccc3)c2n1 | inconclusive: 31.6 µM [activator, single point] | –
COc1cc(CN2CCN(S(=O)(=O)c3ccc(F)cc3)CC2)cc(OC)c1OC | inconclusive: 5.62 µM [activator, single point] | –
O=C(O)c1cccc(Cl)n1 | – | inactive: 7.83% [at 9.22 µM]
COc1ccc(N(C(C)=O)c2nc(C)cc(C)c2C#N)c(OC)c1 | – | inactive: 5% [at 9.22 µM]
O=C(c1ccccc1)N1CCN(C2c3cccc4cccc(c34)C2NS(=O)(=O)c2ccccc2)CC1 (stereo unspecified) | inconclusive: 10 µM [inhibitor, partial curve] | –
Cc1ccc(S(=O)(=O)NC(C)(C)CSc2nncn2N)cc1 | active: 2.82 µM | –
CCCCCCCn1c(=O)c(C(=O)OC)c(N)c2ccccc21 | – | inactive: 2.61% [at 9.22 µM]
CCn1c(SCC(=O)Nc2nc(-c3ccc(C)cc3)cs2)nnc1-c1ccccc1O | inconclusive: 25.1 µM [inhibitor, single point] | –
CN1CCN(C2=Cc3ccccc3Sc3cc(F)c(F)cc32)CC1 | active: 20 µM | –
C/C(Cn1nnc([N+](=O)[O-])n1)=N\NC(=O)c1cccc(Cl)c1 | inconclusive: 17.8 µM [inhibitor, single point] | –
O=C(/C=C/c1ccc2c(c1)OCO2)NCCSCc1ccc(Cl)cc1Cl | inconclusive: 15.8 µM [inhibitor, single point] | –
O=C(CCN1C(=O)c2ccccc2C1=O)Nc1ccc(S(=O)(=O)NC2=NCCCCC2)cc1 | inconclusive: 12.6 µM [activator, single point] | –
O=C(CCc1ccccc1)NNC(=O)c1ccccn1 | active: 12.6 µM | –
COc1ccc(/C=N/Nc2nc(-c3ccc(Cl)cc3)cc(C(F)(F)F)n2)cc1OC | inconclusive: 3.16 µM [inhibitor, single point] | –
COc1ccc(-n2c(C)nnc2SCC(=O)N2C(C)CCCC2C)cc1 (stereo unspecified) | inconclusive: 0.501 µM [inhibitor, partial curve, poor fit] | –
CC(=O)C1=C(c2ccccc2)NC(=S)NC1c1ccc(O)c(O)c1 (stereo unspecified) | inconclusive: 35.5 µM [activator, partial curve] | –
Cc1nc(NCCc2ccccc2)c2oc3ccccc3c2n1 | active: 7.94 µM | –
Nc1ccc(C(=O)c2cccs2)cc1 | inconclusive: 35.5 µM [inhibitor, single point] | –
FC(F)Oc1ccc(NC(=S)NCc2ccccc2)cc1Cl | inconclusive: 28.2 µM [inhibitor, single point] | –
CCOc1cccc(/C=N/NC(=O)c2cc(-c3cccn3C)n[nH]2)c1O | inconclusive: 3.16 µM [inhibitor, single point] | –
S=C1NC[C@H](CC2CCCCC2)N1CCCCC1CCCCC1 | – | inactive: -15.1% [at 9.22 µM]
